Reference: PubChem BioAssay AID1053208 (Peter MacCallum Cancer Centre, 2014)
Shown is one part, drawn at random, of about 17,000 reagents. Of all reagents, 788 (4.7%) are marked active. 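Calls rest on z-score classes alone; an extra cut-off of viability at most 70% of control was not applied to them.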 A number with no mark means an inactive call.

- Assay: 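Find knock-downs that sensitise mouse osteosarcoma cells to doxorubicin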 (primary screen)
- System: mouse osteosarcoma cells, early-passage culture from an engineered mouse model of fibroblastic bone tumour
- Reagents: siRNA pool against mouse genes, 40 nM
- Duration: about 120 h (48 h before drug, then 72 h with drug)
- Treatment: doxorubicin 100 nM for 72 h, roughly 30-40% inhibitory dose
- Detection: 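Viability read as ATP luminescence after 72 h of 100 nM doxorubicin or none, duplicate wells averaged, scaled to non-targeting siRNA, then expressed as robust z-scores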
- Direction: viability z-score with doxorubicin and doxorubicin viability vs non-targeting: higher = more viable cells under doxorubicin; viability z-score without drug: higher = more viable cells with knock-down alone; z-score of drug to no-drug ratio: higher = less drug sensitisation by knock-down
- Active means: 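a pool counts as active when its viability z-score with doxorubicin is -2 or below and its z-score without drug lies between -2 and 2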

| Target gene | combined z-score class | viability z-score with doxorubicin | viability z-score without drug | z-score of drug to no-drug ratio | doxorubicin viability vs non-targeting |
| --- | --- | --- | --- | --- | --- |
| Tsr1 | no change with or without drug | 0.22 | 0.84 | -0.22 | 0.96 |
| Itga2 | no change with or without drug | 0 | -0.17 | 0.22 | 0.94 |
| Dpf2 | no change with or without drug | -1.35 | -0.51 | -1.01 | 0.82 |
| Nphs1 | no change with or without drug | 0.11 | -1.52 | 1.35 | 0.95 |
| Csrp2 | no change with or without drug | -0.56 | 0.51 | -0.79 | 0.89 |
| Wtip | no change with or without drug | 0.34 | 1.18 | -0.34 | 0.97 |
| Tmtc1 | no change with or without drug | 0.22 | 0.51 | 0 | 0.96 |
| Fgd6 | no change with or without drug | 0.9 | 0.51 | 0.67 | 1.02 |
| Man1a | no change with or without drug | -0.22 | 0 | -0.11 | 0.92 |
| Zkscan2 | high cell count with doxorubicin only | 2.02 | 0.17 | 2.14 | 1.12 |
| Or51h1 | low cell count with doxorubicin only (active) | -2.7 | -0.84 | -2.25 | 0.7 |
| Or12j5 | no change with or without drug | 1.12 | -0.17 | 1.46 | 1.04 |
| Or9k2 | no change with or without drug | -0.22 | 0 | -0.11 | 0.92 |
| Ptpn5 | no change with or without drug | -0.22 | -1.18 | 0.79 | 0.92 |
| Zfp276 | no change with or without drug | -1.69 | 0.17 | -1.8 | 0.79 |
| Serpinb7 | no change with or without drug | -0.22 | -1.01 | 0.56 | 0.92 |
| Srsf2 | no change with or without drug | 0.22 | -1.18 | 1.24 | 0.96 |
| Tcl1 | no change with or without drug | -1.35 | -0.84 | -0.79 | 0.82 |
| Kif1c | no change with or without drug | -0.67 | 0.17 | -0.67 | 0.88 |
| Lyar | no change with or without drug | 0.45 | -0.51 | 1.01 | 0.98 |
